{
  "source": "PubChem BioAssay AID485314",
  "about": "(National Center for Advancing Translational Sciences (NCATS), 2010)",
  "note": "The campaign covered roughly 340,000 compounds. About 4,500 (1.3%) were called active. Inconclusive means that the source gave no clear call. Such entries were picked first, then a sample of the others. Calls follow the shape of the dose curve; as a rule, active = well fitted inhibition curve with a large enough effect; inconclusive = small, poorly fitted or top-dose-only effect, or another doubt; inactive = no such curve, though single readings can be large or run the other way. A potency beside an inconclusive call is a rough fit, not a confirmed value. Where a structure was tested more than once in an assay, its records may differ in their call. % is scaled to controls: 0 for no effect and ±100 for the full control effect; potency is read from the fitted curve at half-maximal effect.",
  "data": [
    {"biological_target": "DNA polymerase beta (Homo sapiens) (UniProt P06746)", "assay": "qHTS Assay for Inhibitors of DNA Polymerase Beta", "conditions": "Pol beta primer extension/strand displacement, fluorescence kinetic; activity change, negative = inhibition: at 114 µM (top of the series)", "procedure,_shortened": "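Pol beta (10 nM) was preincubated with compound for 15 min at room temperature. The reaction was then started with 50 nM substrate and read immediately and after a further 10 min at room temperature.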", "values": [
      {"smiles": "CC(C)OC(=O)c1cn(-c2ccccc2)nc1-c1ccco1", "Potency": "active: 39.8 µM"},
      {"smiles": "CC(=O)Nc1ccc(NC(=O)C2CCCN2S(=O)(=O)c2ccc3c(c2)CCCC(=O)N3)cc1", "note": "(stereo unspecified)", "activity change, negative = inhibition": "inactive: 0.106%"},
      {"smiles": "Cc1[nH]n(-c2ncc(-c3ccccc3)s2)c(=O)c1C(c1ccc(Cl)cc1)C(C#N)C#N", "note": "(stereo unspecified)", "Potency": "active: 31.6 µM"},
      {"smiles": "CN(C)N=Nc1ccc(S(N)(=O)=O)cc1", "activity change, negative = inhibition": "inactive: 68.5%"},
      {"smiles": "O=C(Nc1ccc2oc(-c3cccnc3)nc2c1)c1ccc(-c2ccc(OC(F)(F)F)cc2)o1", "activity change, negative = inhibition": "inconclusive: -30.4% [inhibitor]"},
      {"smiles": "CCOC(=O)c1cnn(-c2nc(SC)nc3sc4c(c23)CCCC4)c1N", "activity change, negative = inhibition": "inactive: 3.88%"},
      {"smiles": "Cn1c(=O)c(=O)n(C)c2cc(S(=O)(=O)CCC(=O)NCc3ccccc3)ccc21", "Potency": "inconclusive: 28.2 µM [inhibitor, full curve]"},
      {"smiles": "Nc1nc(N)c2nc(-c3ccccc3)c(N)nc2n1", "Potency": "inactive"},
      {"smiles": "CCC(=O)N1CCc2cc(S(=O)(=O)NC(C(=O)NC(C)c3ccccc3)C(C)C)ccc21", "note": "(stereo unspecified)", "Potency": "inconclusive: 25.1 µM [inhibitor, full curve]"},
      {"smiles": "COc1cc(Cl)c(C)cc1NC(=O)c1ccc2c(SCC(=O)O)c3c(nc2c1)CCCC3", "Potency": "active: 20 µM"},
      {"smiles": "O=C(CSc1n[nH]c(-c2ccccc2)n1)NCCCc1ccccc1", "activity change, negative = inhibition": "inactive: 6.52%"},
      {"smiles": "COCc1cc(C)n(CC(=O)Nc2c(C)cccc2C)c(=O)c1C#N", "Potency": "inconclusive: 89.1 µM [inhibitor, single point]"},
      {"smiles": "O=C(Nc1nccs1)c1ccc(S(=O)(=O)c2ccccc2)cc1", "Potency": "inconclusive: 89.1 µM [inhibitor, single point]"},
      {"smiles": "S=c1[nH]nc(-c2ccc3ncccc3c2)n1-c1ccc2c(c1)OCCO2", "activity change, negative = inhibition": "inactive: 61.7%"},
      {"smiles": "O=C(NC1CCCC1)C(c1ccc(F)cc1)N(Cc1ccc(F)cc1)C(=O)CCl", "note": "(stereo unspecified)", "Potency": "inconclusive: 89.1 µM [inhibitor, single point]"},
      {"smiles": "CCn1c(=O)c(=O)n(CC)c2cc(N3CCCCC3)c(NC(=O)c3ccc(Cl)cc3)cc21", "Potency": "inconclusive: 22.4 µM [inhibitor, full curve]"},
      {"smiles": "N#Cc1c2c(c(NCCCN3CCOCC3)n3c1nc1ccccc13)CCC2", "Potency": "inconclusive: 35.5 µM [inhibitor, partial curve]"},
      {"smiles": "O=C(CCN1C(=O)S/C(=C\\c2ccccc2)C1=O)Nc1ccc(S(=O)(=O)Nc2nccs2)cc1", "Potency": "inconclusive: 56.2 µM [inhibitor, single point]"},
      {"smiles": "O=c1c(Cc2ccc(F)cc2)c(O)ccn1C1CCCCC1", "Potency": "inconclusive: 89.1 µM [inhibitor, single point]"},
      {"smiles": "CC(C)(C)NC(=O)CSc1nc2ccc(NC(=O)CSc3nnnn3Cc3ccccc3)cc2s1", "activity change, negative = inhibition": "inactive: 10.4%"},
      {"smiles": "O=C(CSc1ccc(-c2ccco2)nn1)c1cccc([N+](=O)[O-])c1", "Potency": "active: 28.2 µM"},
      {"smiles": "Cc1cc(NC(=O)c2ccc(NC(=O)c3cccs3)cc2)no1", "Potency": "inconclusive: 89.1 µM [inhibitor, single point]"},
      {"smiles": "CCOC(=O)c1sc(NC(=O)CSc2nnnn2-c2ccccc2)nc1C", "Potency": "inconclusive: 89.1 µM [inhibitor, single point]"},
      {"smiles": "NC(CCC(=O)O)C12CC3CC(CC(C3)C1)C2", "note": "(stereo unspecified)", "activity change, negative = inhibition": "inactive: 11.2%"},
      {"smiles": "COC(=O)c1sc(NC(=O)c2oc3ccccc3c2C)nc1C", "Potency": "inconclusive: 89.1 µM [inhibitor, single point]"},
      {"smiles": "CCCCCCOc1ccc(N2C(=O)CC(N3CCN(C(=O)c4ccco4)CC3)C2=O)cc1", "note": "(stereo unspecified)", "Potency": "inconclusive: 31.6 µM [inhibitor, partial curve, poor fit]"},
      {"smiles": "COc1cc(C(=S)N2CCN(c3ccccc3Cl)CC2)cc(O)c1O", "Potency": "active: 10 µM"},
      {"smiles": "O=C(NCCSCc1cccc(Cl)c1)C1CCN(S(=O)(=O)Cc2ccccc2)CC1", "activity change, negative = inhibition": "inactive: -12.6%"},
      {"smiles": "Cc1cccc(-n2nnnc2SCC(=O)c2cc(C)n(Cc3ccco3)c2C)c1", "Potency": "inconclusive: 15.8 µM [inhibitor, full curve]"},
      {"smiles": "COc1ccc(OC)c(Nc2nc(N)nc(CSc3nnc(-c4ccncc4)o3)n2)c1", "activity change, negative = inhibition": "inactive: -10.2%"},
      {"smiles": "CCOc1ccc(C(=O)/C=C/c2ccc(SC)cc2)cc1", "Potency": "inconclusive: 0.141 µM [inhibitor, full curve, poor fit]"},
      {"smiles": "C/C(=N\\NC(=O)c1nnn(-c2nonc2N)c1-c1ccccc1)c1ccco1", "activity change, negative = inhibition": "inactive: -1.3%"},
      {"smiles": "CCOc1ccc(C(=O)NCc2ccc3c(c2)CCN3C(=O)c2ccccc2)cc1", "Potency": "inconclusive: 89.1 µM [inhibitor, single point]"},
      {"smiles": "Nc1ccc(N2CCCCC2)c(S(=O)(=O)Nc2ccccc2Cl)c1", "Potency": "inconclusive: 39.8 µM [inhibitor, single point]"},
      {"smiles": "COc1ccc(/C=C2\\CC/C(=C\\c3ccc(OC)c(OC)c3)C2=O)cc1OC", "activity change, negative = inhibition": "inactive: 16.4%"},
      {"smiles": "Fc1ccc(-c2n[nH]c(=S)n2-c2ccc3c(c2)OCCO3)cc1", "Potency": "inconclusive: 2.82 µM [inhibitor, full curve]"}
    ]}
  ]
}
